Measurements taken from publication PMC12870119.
These are yes or no findings as the source states them, for the method shown. In cells and extracts the contact can be indirect. Some binding calls cover weakened binding; strength is not graded here.

Molecular target: T1, Stimulator of interferon genes (mouse (endogenous in DC2.4)) (UniProt Q3TBT3)
T1 sequence: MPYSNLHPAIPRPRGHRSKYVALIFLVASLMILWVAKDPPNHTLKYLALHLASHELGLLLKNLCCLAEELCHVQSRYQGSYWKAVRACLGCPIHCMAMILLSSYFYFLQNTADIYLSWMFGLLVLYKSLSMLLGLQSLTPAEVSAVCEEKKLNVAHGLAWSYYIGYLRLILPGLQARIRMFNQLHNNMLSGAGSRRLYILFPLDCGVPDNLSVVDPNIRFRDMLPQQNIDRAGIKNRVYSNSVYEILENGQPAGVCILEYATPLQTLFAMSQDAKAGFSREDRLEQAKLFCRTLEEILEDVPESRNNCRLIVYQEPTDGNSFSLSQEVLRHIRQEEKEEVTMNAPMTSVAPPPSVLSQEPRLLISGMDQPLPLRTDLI
Experiment: co-IP; con DC2.4 cell lysates (nondenaturing lysis) immunoprecipitated with anti-STING antibody, protein A magnetic beads, immunoblotted with anti-TRIM13; cells stimulated with LPS (1 ug/ml, 24 h), DMSO, ESI (20 uM, 4 h) or XRK3F2 (10 uM, 24 h); IgG control

B1: Tripartite motif 13 (protein, UniProt Q9CYB0 1-407)
chain: MELLEEDLTCPICCSLFDDPRVLPCSHNFCKKCLEGLLEGNVRNSLWRPSPFKCPTCRKETSATGVNSLQVNYSLKGIVEKYNKIKISPKMPVCKGHLGQPLNIFCVTDMQLICGICATRGEHTKHVFSSIEDAYAREKNAFESLFQSFETWRRGDALSRLDTLETNKRKALQLLTKDSDKVKEFFEKLQHTLDQKKNEILSDFETMKLAVMQTYDPEINKINTILQEQRMAFNIAEAFKDVSEPIIFLQQMQEFREKIKVIKETPLPHSNLPTSPLMKNFDTSQWGDIKLVDVDKLSLPQDTGVFTSKIPWYPYLLLMMVVLLGLLIFFGPTVFLEWSPLDELATWKDYLSSFNSYLTKSADFIEQSVFYWEQMTDGFFIFGERVKNVSLVALNNVAEFICKYKLL
For B1, the binding was “binds”.
